Data from PubChem BioAssay AID504834 (National Center for Advancing Translational Sciences (NCATS), 2011).
The campaign covered roughly 320,000 compounds. About 22,000 (6.9%) were called active. Inconclusive means that the source gave no clear call. Such entries were picked first, then a sample of the others. Calls follow the shape of the dose curve; as a rule, active = well fitted inhibition curve with a large enough effect; inconclusive = small, poorly fitted or top-dose-only effect, or another doubt; inactive = no such curve, though single readings can be large or run the other way. Potencies of inconclusive entries are doubtful fits and often do not repeat.
Potency is read from the fitted curve at half-maximal effect.

Assay: Primary qHTS for delayed death inhibitors of the malarial parasite plastid, 96 hour incubation
Details: P. falciparum luciferase reporter growth; series mostly up to 28.7 µM
Summary of the method: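 Readout is luminescence from an integrated firefly luciferase in P. falciparum. Red cells, 2% hematocrit and 0.05% parasitemia final, were cultured with compound through two parasite generations (96 hours) at 37 C, 5% CO2.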
In the case of `Cc1ccc(NC2c3ncccc3C(=O)N2C2CCCCC2)cc1` (stereo not drawn), the Potency is reported as inconclusive: 0.0928 µM [inhibitor, full curve, poor fit].
For `COc1ccc(C(=O)NCCc2cccc(Cl)c2)cc1OC1CCN(C(C)=O)CC1`, the Potency was inconclusive: 16.5 µM [inhibitor, partial curve].
For `CC(=O)c1ccc(N2CCN(CC(O)COC(c3ccccc3)c3ccccc3C)CC2)cc1` (stereo not drawn), the Potency was inconclusive: 5.86 µM [inhibitor, partial curve, poor fit].
With `O=C1C2C3C=CC(CC3)C2C(=O)N1/N=C/c1ccc(O)c(O)c1` (stereo not drawn) the Potency was “inactive”.
In the case of `CCCCCCOC(=O)c1ccc(N)cc1`, the Potency is reported as “inactive”.
In the case of `CCCc1cc(=O)oc2cc(C)cc(OC(C)C(=O)N[C@@H](Cc3c[nH]c4ccccc34)C(=O)O)c12` (stereo partly drawn), the Potency is reported as “inactive”.
For `CCN(CC)c1ccc(C(=O)Nn2cnc3ccccc3c2=O)cc1`, the Potency was “inactive”.
For `O=C(C1CCC(CNS(=O)(=O)c2cccc3cccnc23)CC1)N1CCc2ccccc21` (stereo not drawn), the Potency was inconclusive: 9.28 µM [inhibitor, partial curve, poor fit].
In the case of `COc1ccc(N2C(=O)c3ccc(C(=O)OC(C)C)cc3C2=O)cc1`, the Potency is reported as inconclusive: 16.5 µM [inhibitor, single point].
With `CC(=O)Nc1ccc(Nc2cc(C)nc3c(-c4ccccc4)c(C)nn23)cc1` the Potency was active: 3.7 µM.
With `c1ccc(Cn2cc(-c3ccccc3)cn2)cc1` the Potency was inconclusive: 5.22 µM [inhibitor, partial curve, poor fit].
With `CCC(C)NC(=O)c1ccc(NS(=O)(=O)c2ccc3[nH]c(=O)[nH]c3c2)cc1` (stereo not drawn) the Potency was inconclusive: 14.7 µM [inhibitor, single point].
For `Cc1nc(-c2ccccn2)nc(N2CCOCC2)c1Cl`, the Potency was active: 2.33 µM.
In the case of `Cc1cc(C)cc(NC(=O)COc2coc(CN3CCc4ccccc4C3)cc2=O)c1`, the Potency is reported as inconclusive: 11.7 µM [inhibitor, partial curve, poor fit].
In the case of `O=C1/C(=C/c2ccco2)Oc2c1ccc(O)c2CN1CCCCC1`, the Potency is reported as inconclusive: 10.4 µM [inhibitor, single point].
For `O=C(NC(=O)c1cnccc1C(F)(F)F)Nc1ccccc1`, the Potency was “inactive”.
With `CN1CCN(S(=O)(=O)c2cccc3nsnc23)CC1` the Potency was inconclusive: 18.5 µM [inhibitor, single point].
In the case of `CCOC(=O)Nc1ccc2c(c1)N(C(=O)CN1CCN(CCO)CC1)c1ccccc1CC2`, the Potency is reported as active: 11.7 µM.
For `Cc1ccc(-c2cc(C(=O)N/N=C/c3ccccc3)n[nH]2)o1`, the Potency was inconclusive: 16.5 µM [inhibitor, single point].
In the case of `COCc1cc([C@@H]2C[C@H]3CN(c4ccccc4)C(=O)[C@]34CCCN24)ccc1OC`, the Potency is reported as inconclusive: 10.4 µM [inhibitor, single point].
For `Cc1ccc(NC(=O)Cn2nnc(C(=O)NCc3cccs3)c2N)c(C)c1`, the Potency was inconclusive: 0.522 µM [inhibitor, full curve, poor fit].
With `Cc1ccc(S(=O)(=O)N(C)c2cc(S(=O)(=O)N3CCOCC3)c(C)cc2C)cc1` the Potency was inconclusive: 5.86 µM [inhibitor, partial curve, poor fit].
With `Cc1cc(Br)c(S(=O)(=O)NCc2ccncc2)cc1C` the Potency was inconclusive: 9.28 µM [inhibitor, single point].
With `COc1ccc(O)c(/C=N/NC(=S)Nc2cccnc2)c1` the Potency was active: 0.522 µM.
In the case of `Nc1ncnc(Oc2ccccc2F)c1[N+](=O)[O-]`, the Potency is reported as “inactive”.
In the case of `C=CCN1C(=O)C(Cc2ccccc2)S/C1=N/N=C/c1cccs1` (stereo not drawn), the Potency is reported as inconclusive: 10.4 µM [inhibitor, single point].
In the case of `C=C(C)CNC(=S)N/N=C(\C)c1cccc(NC(C)=O)c1`, the Potency is reported as inconclusive: 18.5 µM [inhibitor, single point].
With `O=C(O)c1ccc(NCCc2ccc(Cl)cc2)c([N+](=O)[O-])c1` the Potency was inconclusive: 0.147 µM [inhibitor, full curve, poor fit].
For `Cc1cccc(CCNS(=O)(=O)c2ccc3c(c2)NC(=O)CS3)c1`, the Potency was inconclusive: 18.5 µM [inhibitor, single point].
In the case of `COc1cc2c(cc1OC)C(C)N(C(=O)c1sc(-c3cnccn3)nc1C)CC2` (stereo not drawn), the Potency is reported as inconclusive: 9.28 µM [inhibitor, single point].
With `O=Cc1ccc(Sc2ncccn2)o1` the Potency was “inactive”.
For `C/C(=N\Nc1ccc(S(=O)(=O)Nc2ccccc2)cc1[N+](=O)[O-])c1ccc(N2CCOCC2)cc1`, the Potency was inconclusive: 1.04 µM [inhibitor, full curve].
For `Cn1c(=O)[nH]c(=O)c2c1nc(N/N=C/c1ccncc1)n2Cc1ccc(Cl)cc1`, the Potency was “inactive”.
In the case of `Cc1cc(C)c(C#N)c(SCc2ccccc2C(=O)O)n1`, the Potency is reported as inconclusive: 14.7 µM [inhibitor, single point].
With `COc1cccc(C2CC(c3cccc(C)c3)n3ncnc3N2)c1` (stereo not drawn) the Potency was inconclusive: 7.38 µM [inhibitor, partial curve, poor fit].
For `CC[N+]1(CC)CC2=Cc3c(ccc4ccccc34)CC2C1` (stereo not drawn), the Potency was inconclusive: 0.928 µM [inhibitor, full curve].
With `CCCOc1ccc2oc(=O)c3c(c2c1)CCCN3C(=O)CN1CCc2ccccc2C1` the Potency was inconclusive: 13.1 µM [inhibitor, single point].
In the case of `CCOc1nc(C)cc(COC)c1C(N)=O`, the Potency is reported as inconclusive: 3.29 µM [inhibitor, single point].
In the case of `COc1ccc(CNC(=O)CSc2nnc3c(Cl)cc(C(F)(F)F)cn23)cc1OC`, the Potency is reported as inconclusive: 2.33 µM [inhibitor, full curve, poor fit].
With `CCN1CCn2c3c(c4cccc(C)c42)CCCC31` (stereo not drawn) the Potency was “inactive”.
With `Cc1cc2nc3n(c2cc1C)CC1CC(C(=O)NCc2ccccc2)N(C)C31` (stereo not drawn) the Potency was inconclusive: 9.28 µM [inhibitor, single point].
In the case of `COc1ccccc1CNC(=O)c1ccc2c(=O)n3c(nc2c1)CCCCC3`, the Potency is reported as “inactive”.
For `N#Cc1c2ccc(OCC(=O)NCc3ccco3)cc2n2ccccc12`, the Potency was inconclusive: 18.5 µM [inhibitor, single point].
For `O=C(c1ccc2nc(N3CCOCC3)sc2c1)N1CCC(Cc2ccccc2)CC1`, the Potency was inconclusive: 10.4 µM [inhibitor, partial curve, poor fit].
In the case of `Cn1nnnc1SCC(=O)NC(C)(C)C`, the Potency is reported as inconclusive: 13.1 µM [inhibitor, partial curve, poor fit].
In the case of `O=C(CNS(=O)(=O)c1ccccc1)OCC(=O)c1ccc(OC(=O)c2ccccc2)cc1`, the Potency is reported as “inactive”.
For `Cc1ccc(O)c(NC(=O)C2CC(c3ccc(F)cc3)=NO2)c1` (stereo not drawn), the Potency was inconclusive: 18.5 µM [inhibitor, single point].
In the case of `CCOC(=O)CN1N=C(c2ccc(C)cc2)CCC1=O`, the Potency is reported as inconclusive: 2.08 µM [inhibitor, full curve, poor fit].
For `O=C(CCC1CCCNC1)c1ccccc1` (stereo not drawn), the Potency was inconclusive: 10.4 µM [inhibitor, single point].
For `O=C(NCc1ccc(F)cc1)c1cc(S(=O)(=O)N2CCCCC2)c[nH]1`, the Potency was inconclusive: 18.5 µM [inhibitor, single point].
With `O=C(c1ccccc1/S(=N/S(=O)(=O)c1ccccc1)N1CCOCC1)N1CCOCC1` (stereo not drawn) the Potency was “inactive”.
With `O=C(N/N=C/c1c(O)ccc2ccccc12)c1cccnc1` the Potency was “inactive”.
For `Cc1cccc(N(CC(=O)NCCc2ccccc2)C(=O)c2csnn2)c1`, the Potency was “inactive”.
In the case of `O=C1COc2ccc(C(=O)CSc3ccccc3C(=O)O)cc2N1`, the Potency is reported as inconclusive: 4.15 µM [inhibitor, single point].
For `COc1ccc(NC(=O)CCC(=O)N2CCN(S(=O)(=O)c3ccc(C)cc3)CC2)c(OC)c1`, the Potency was inconclusive: 18.5 µM [inhibitor, single point].
In the case of `CC(C)Cc1cc(C(=O)Nc2c(F)cc(F)cc2Br)no1`, the Potency is reported as inconclusive: 16.5 µM [inhibitor, single point].
For `Cn1c(=O)n(C)c2cc([N+](=O)[O-])c(N3CCN(C(=O)c4cccc(F)c4)CC3)cc21`, the Potency was inconclusive: 0.0052 µM [inhibitor, partial curve, poor fit].
For `Cc1nc(SCC(=O)NCc2ccc3c(c2)OCO3)c(C#N)c2c1CCCC2`, the Potency was inconclusive: 4.65 µM [inhibitor, partial curve].
In the case of `O=C(Nc1ccc(Cl)c(Cl)c1)OCc1cccnc1`, the Potency is reported as inconclusive: 14.7 µM [inhibitor, single point].
For `COc1cccc(OCC(O)CN2CCC(CN3C(=O)c4cccc5cccc(c45)C3=O)CC2)c1` (stereo not drawn), the Potency was inconclusive: 11.7 µM [inhibitor, single point].
With `O=C(NCCc1ccccn1)c1ccc(OC2CCN(CCc3ccccc3)CC2)cc1` the Potency was “inactive”.
In the case of `O=C(NCCc1ccc(Cl)cc1)C1CCCN(S(=O)(=O)c2cnc[nH]2)C1` (stereo not drawn), the Potency is reported as inconclusive: 18.5 µM [inhibitor, single point].
With `COc1ccc(C(=O)O/N=C(\N)c2ccccn2)cc1[N+](=O)[O-]` the Potency was inconclusive: 9.28 µM [inhibitor, partial curve, poor fit].
With `Cc1ccc(NC(=O)C(NC2CCCC2)c2ccccc2)cc1Cl` (stereo not drawn) the Potency was active: 11.7 µM.
With `CN(Cc1cn(C)nc1-c1cccc(Cl)c1)Cc1nccn1C` the Potency was “inactive”.
For `COc1cc(NC(=O)CSc2nnc(-c3ccncc3)o2)cc(OC)c1OC`, the Potency was inconclusive: 18.5 µM [inhibitor, single point].
For `CCCCCCn1nc(C(=O)N(CC(C)C)c2c(N)n(CCCC)c(=O)[nH]c2=O)c2ccccc2c1=O`, the Potency was inconclusive: 1.04 µM [inhibitor, full curve].
For `Cc1ccccc1NC(=O)c1ccc2c(c1)N(C)CCS2`, the Potency was active: 13.1 µM.
